Reference: PubChem BioAssay AID652243 (Drosophila RNAi Screening Center, 2013)
Assay: 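Knock-downs that decrease or increase androgen receptor reporter signal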 (primary screen). Cells: Drosophila S2R+ cells. Knock-down reagent: long dsRNA against Drosophila genes. Timing: 72 h (48 h, then 24 h hormone). Challenge: synthetic androgen R1881 at 10 nM for 24 h. Detection: 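Per-well raw luminescence of the androgen-driven firefly reporter and of the Renilla control, two replicates each, without normalisation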. Direction: firefly reporter light: higher = more light from androgen-responsive reporter; Renilla control light: higher = more constitutive control signal (cell number, transfection). Active means: 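Hit when the log firefly-to-Renilla ratio dropped or increased by a fixed fold versus the mean of GFP or LacZ controls across duplicate plates; lowering cut given as 1.5 and as 3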. Calls: active = hit: reporter lowered or raised; inactive = no hit.
In all, the deposit lists about 24,000 reagents; below is an unselected part of those with a known target gene and a result. Of all reagents, 246 (1%) were called active. 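Plates not normalised; calls are printed but the firefly/Renilla ratio behind them is not deposited; fold cut for lowering reported inconsistently.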 The raw values are shown without normalisation. The numbers tell different reagents against one gene apart. Names joined by + are all predicted targets of the reagent. No sequences are given here. The record does not give: the amount of reagent.

no.	gene	dsRNA no.	firefly reporter light, replicate 1	firefly reporter light, replicate 2	Renilla control light, replicate 1	Renilla control light, replicate 2	outcome
1	CG32450	1	2.32e5	2.86e5	6.28e5	6.02e5	inactive
2	CG4563	1	2.72e5	2.57e5	1.73e6	1.49e6	inactive
3	CG42399	1	1.40e5	1.58e5	5.86e5	7.82e5	inactive
4	CG42399	2	1.16e5	1.12e5	6.11e5	7.10e5	inactive
5	Moca-cyp	1	1.37e5	1.28e5	1.42e6	1.06e6	inactive
6	Moca-cyp	2	5.64e5	3.89e5	5.32e5	6.29e5	inactive
7	TH1	1	77131	94961	5.45e5	6.13e5	inactive
8	PCB (Pyruvate carboxylase)	1	1.26e6	9.37e5	2.23e6	1.85e6	inactive
9	CG6834	1	1.55e5	2.29e5	1.69e6	2.01e6	inactive
10	CG6834	2	9.26e5	7.51e5	1.97e6	1.97e6	inactive
11	CG32066	1	5.80e5	7.83e5	7.17e5	9.18e5	inactive
12	CG32066	2	2.11e5	1.48e5	2.30e6	1.63e6	inactive
13	mRpS30 (mitochondrial ribosomal protein S30)	1	1.12e5	1.12e5	7.44e5	5.53e5	inactive
14	CG9297	1	69866	58785	2.54e5	2.06e5	inactive
15	CG9297	2	7.17e5	6.39e5	1.12e6	1.05e6	inactive
16	CG8939	1	74978	56473	4.71e5	5.93e5	inactive
17	CG15023	1	1.51e5	1.55e5	1.67e6	2.17e6	inactive
18	CG15023	2	6.98e5	6.57e5	6.83e5	6.61e5	inactive
19	Frmd5 (FERM domain containing)	1	90049	90328	1.31e6	1.10e6	active
20	atilla	1	3.19e5	3.20e5	1.60e6	1.71e6	inactive
21	atilla	2	2.89e5	2.68e5	6.60e5	6.74e5	inactive
22	PGRP-LD + Pmi	1	9.29e5	7.15e5	2.31e6	2.44e6	inactive
23	PGRP-LD + Pmi	2	8.63e5	9.87e5	1.49e6	2.02e6	inactive
24	CG2652	1	4.75e5	4.75e5	4.07e6	3.34e6	inactive
25	CG2652	2	4.76e5	5.94e5	1.61e6	1.65e6	inactive
26	CG2652	3	3.37e5	2.24e5	5.25e5	4.23e5	inactive
27	sunz (sungrazer)	1	63846	38107	9.95e5	9.57e5	inactive
28	Teh4 (tipE homolog 4)	1	1.89e5	1.29e5	2.73e6	1.63e6	inactive
29	CG13454	1	4.61e5	4.39e5	2.01e6	3.23e6	inactive
30	CG34273	1	7.54e5	5.80e5	1.59e6	1.21e6	inactive
31	IntS6 (Integrator 6)	1	94878	1.65e5	6.70e5	4.37e5	inactive
32	IntS6 (Integrator 6)	2	2.08e6	1.34e6	1.48e6	1.21e6	inactive
33	CG4576	1	1.55e5	1.84e5	2.07e6	2.24e6	inactive
34	CG4576	2	2.78e5	2.84e5	4.59e5	4.61e5	inactive
35	CG11035	1	45329	80793	3.30e5	4.48e5	inactive
36	Cul2 (Cullin 2)	1	7.00e5	5.95e5	1.81e6	1.26e6	inactive
37	jet (jetlag)	1	3.90e5	6.96e5	1.03e6	1.39e6	inactive
38	jet (jetlag)	2	4.27e5	4.11e5	6.44e5	7.92e5	inactive
39	Osi17 (Osiris 17)	1	90896	1.22e5	1.81e6	1.78e6	inactive
40	nyo (nyobe)	1	2.03e5	2.10e5	2.30e6	2.72e6	inactive
41	nyo (nyobe)	2	1.83e5	1.34e5	1.04e6	1.13e6	inactive
42	pncr011:3L (retired record)	1	5.35e5	5.98e5	1.12e6	1.08e6	inactive
43	pncr011:3L (retired record)	2	8.07e5	7.49e5	1.96e6	1.26e6	inactive
44	Rab35	1	1.26e5	1.26e5	5.98e5	7.66e5	inactive
45	Rab35	2	8.39e5	4.78e5	7.35e5	2.85e5	inactive
46	Aef1 (Adult enhancer factor 1)	1	2.54e5	2.60e5	2.42e6	2.92e6	inactive
47	CG15572	1	1.14e6	7.63e5	8.96e5	7.11e5	inactive
48	CG34196	1	1.00e6	7.53e5	1.93e6	1.64e6	inactive
49	GLaz (Glial Lazarillo)	1	2.98e5	2.56e5	1.66e6	1.81e6	inactive
50	CG13071	1	2.82e5	2.95e5	3.07e6	2.51e6	inactive
51	CG33271	1	8.63e5	4.79e5	2.68e6	1.70e6	inactive
52	CR42532 (pseudo)	1	4.65e5	3.52e5	1.75e6	2.35e6	inactive
53	tyn (trynity)	1	1.58e5	1.62e5	5.49e5	4.40e5	inactive
54	rumi	1	83511	97696	7.08e5	7.35e5	inactive
55	rumi	2	6.39e5	6.54e5	9.20e5	9.20e5	inactive
56	Epg5 (ectopic P-granules autophagy protein 5)	1	2.18e5	2.20e5	3.45e6	3.08e6	inactive
57	CG33775	1	8.32e5	7.73e5	2.07e6	1.31e6	inactive
58	CG7196 (retired record)	1	1.96e5	1.89e5	1.03e6	8.39e5	inactive
59	CG7196 (retired record)	2	94939	1.15e5	1.27e6	1.20e6	inactive
60	CG30288	1	6.59e5	5.27e5	2.05e6	1.68e6	inactive
61	CG30288	2	5.00e5	3.30e5	1.21e6	8.80e5	inactive
62	Cpr73D (Cuticular protein 73D)	1	16904	21760	2.55e5	2.23e5	inactive
63	Cpr73D (Cuticular protein 73D)	2	2.93e5	2.65e5	5.98e5	7.27e5	inactive
64	His1:CG33816 + His1:CG33828 + His1:CG33819 + 21 more	1	2.41e5	2.23e5	4.22e5	3.56e5	inactive
65	Bulli	1	1.16e5	86877	1.87e6	9.16e5	inactive
66	Cyt-c-d (Cytochrome c distal)	1	1.32e5	1.78e5	1.97e6	2.20e6	inactive
67	Cyt-c-d (Cytochrome c distal)	2	1.38e6	7.98e5	1.32e6	7.06e5	inactive
68	Src64B (Src oncogene at 64B)	1	1.07e5	90047	1.09e6	1.78e6	inactive
69	Src64B (Src oncogene at 64B)	2	6.63e5	7.39e5	1.51e6	1.17e6	inactive
70	Src64B (Src oncogene at 64B)	3					inactive
71	CAH2 (Carbonic anhydrase 2)	1	1.89e5	1.89e5	2.26e6	2.34e6	inactive
72	CG1840	1	87209	69283	6.88e5	7.41e5	inactive
73	CG1840	2	6.89e5	7.04e5	9.15e5	7.50e5	inactive
74	hgo (homogentisate 1,2-dioxygenase)	1	2.39e5	1.72e5	1.99e6	1.83e6	inactive
